Measurements from PMC9560605.
Results are given in words; binding and its absence hold for the method and conditions named. In cells and extracts the contact can be indirect. Binding can be weak; no strength is given.

Chains of the proteins cited; added tags and fusions are not shown. Lines headed by an entry give the natural chain unless they say otherwise; changes in a name come on top.
UniProt Q9TZB2: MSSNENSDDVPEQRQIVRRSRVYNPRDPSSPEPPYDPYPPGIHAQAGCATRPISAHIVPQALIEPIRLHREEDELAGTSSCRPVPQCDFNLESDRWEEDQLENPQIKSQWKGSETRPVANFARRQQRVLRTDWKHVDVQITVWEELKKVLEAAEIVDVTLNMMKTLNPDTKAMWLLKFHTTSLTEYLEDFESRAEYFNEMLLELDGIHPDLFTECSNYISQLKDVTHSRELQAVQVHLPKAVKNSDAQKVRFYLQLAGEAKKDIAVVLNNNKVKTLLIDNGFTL
UniProt Q3V5H4: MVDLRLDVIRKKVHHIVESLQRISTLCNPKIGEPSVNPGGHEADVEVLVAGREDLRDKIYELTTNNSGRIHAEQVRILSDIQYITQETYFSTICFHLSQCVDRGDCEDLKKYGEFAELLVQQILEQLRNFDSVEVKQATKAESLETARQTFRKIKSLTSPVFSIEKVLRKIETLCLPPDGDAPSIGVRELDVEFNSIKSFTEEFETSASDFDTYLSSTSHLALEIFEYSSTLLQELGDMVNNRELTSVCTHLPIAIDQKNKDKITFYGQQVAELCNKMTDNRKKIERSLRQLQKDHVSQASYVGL

Target: PALS-22::GFP::3xFLAG (C. elegans) (UniProt Q9TZB2)
Test: co-IP; anti-FLAG M2 affinity gel on 1 mg C. elegans lysate (1 ug/ul) of strains expressing PALS-22::GFP::3xFLAG (pals-22p, vha-6p or dpy-7p) or GFP::3xFLAG (spp-5p), 4°C, 2 h; Western blot with anti-PALS-25

binding: binds
Substance: PALS-25(WT), endogenous (from UniProt Q3V5H4)
